Results: PubChem BioAssay AID493014 (National Center for Advancing Translational Sciences (NCATS), 2011)
About 170 (0.05%) of roughly 340,000 compounds were called active. The inconclusive results got no clear call from the source; some entries with a clear call stand among them for comparison. Calls follow the shape of the dose curve; as a rule, active = well fitted inhibition curve with a large enough effect in the signal ratio, with a control signal flat (not every such curve was filed as active); inconclusive = small, poorly fitted or top-dose-only effect, or effect the other way, or a change in a side signal; inactive = flat fitted curve, though single readings scatter; the % refers to the signal ratio. A potency beside an inconclusive call is a rough fit, not a confirmed value.

test: qHTS Assay to Find Inhibitors of Chronic Active B-Cell Receptor Signaling; conditions: ABC-DLBCL IkBa-CBG/CBR reporter, luminescence ratio (green luciferase fused to IkBa over red control in TMD8 lymphoma cells), 4 h; activity change, negative = inhibition: at 46.1 µM (top of the series) unless noted;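 as to activity change, negative = inhibition: plate controls were basal doxycycline-induced cells for no effect and cells given 10 µM MG132 for full effect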
In short: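 Cell line TMD8 (human ABC DLBCL), stably expressing tet-inducible CBG68-IkBa fusion and CBR; IMDM/0.5% FBS; cpd up to 46 uM; dox induction, 4 h, 37C/5% CO2; dual luminescence; green/red ratio; MG132 control.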
Potency is read from the fitted curve at half-maximal effect.

Row | Structure (SMILES) | activity change, negative = inhibition | Potency
1 | CCN(c1ncnc2c1cnn2-c1cc(Cl)ccc1C)C1CCCCC1 | inconclusive: 14% | –
2 | O=C1CC(c2ccccc2)CC(O)=C1C=Nc1ccccc1O (configuration not stated) | – | inconclusive: 3.98 µM [falling, single point]
3 | Cc1cc(NC2C3CC4CC(C3)CC2C4)n2nnnc2n1 (configuration not stated) | inconclusive: 2.7% | –
4 | Cc1c(N=NC2=C(O)CCCC2=O)c(=O)n(-c2ccccc2)n1C | inactive | –
5 | CC(C)CN(C(=O)C(C)N1C(=O)c2ccccc2C1=O)c1c(N)n(Cc2ccccc2)c(=O)[nH]c1=O (configuration not stated) | inconclusive: -12.9% | –
6 | COCCCN(C(=S)NC(=O)C(C)(C)C)c1c(N)n(Cc2ccccc2)c(=O)[nH]c1=O | inconclusive: 1.53% | –
7 | COc1ccc(C)cc1C(=O)C1CC(C(=O)O)C(C)(C)C1C (configuration not stated) | inconclusive: 3.86% | –
8 | COc1cc(C(=O)NCCc2c[nH]c3ccccc23)ccc1OCc1c(C)noc1C | – | inconclusive: 11.2 µM [falling, partial curve]
9 | FC(F)(F)c1cccc(CNC(=S)Nc2ccccc2)c1 | inactive | –
10 | COc1ccc(NC(=O)CSc2nc(O)cc(=O)n2-c2ccc(OC)cc2)cc1 | – | inconclusive: 12.6 µM [rising, partial curve, poor fit]
11 | CCOc1ccc(NC(=O)CSc2ccc3nnc(-c4cccnc4)n3n2)cc1 | inactive | –
12 | CCCCCC(=O)NC(=S)Nc1cccc(C(C)=O)c1 | inactive | –
13 | COc1ccc(/C=C/C(=O)OCC(=O)Nc2ccc3[nH]c(=O)[nH]c3c2)cc1OC | inactive | –
14 | Cc1ccc(C)c(/C=C(\C(=O)O)c2ccc(S(=O)(=O)N3CCCCC3)s2)c1 | inactive | –
15 | O=C(CSc1nnc(NC(=O)c2c(F)cccc2F)s1)NCc1ccco1 | inactive | –
16 | CC(C)N(C(=O)COC(=O)[C@H](C)NC(=O)c1ccco1)c1ccccc1 | inconclusive: 5.19% | –
17 | CC1(C)CCSC(/C=C/c2ccccc2)=N1 | – | inconclusive: 17.8 µM [falling, single point]
18 | COc1ccccc1C(=O)OCCCN=C1NS(=O)(=O)c2ccccc21 | inconclusive: -0.549% | –
19 | CCN(C(=O)c1ccc(NC(C)=O)cc1)c1ccccc1C | inconclusive: 35.3% | –
20 | O=C(Nc1ccc2c(c1)OCO2)c1cc(Cl)ccn1 | inconclusive: 0.605% | –
21 | Cc1ccc(O)c(NC(=O)c2noc3c2CCCCC3)c1 | inconclusive: 10.8% | –
22 | Cc1c(C(=O)O)cccc1-n1c(C)cc(/C=C(/C#N)C(=O)NCc2ccccc2)c1C | – | inconclusive: 35.5 µM [falling, partial curve, poor fit]
23 | CCOc1ccc(-n2nnnc2-c2nc3ccccc3s2)cc1 | – | inconclusive: 8.2 µM [rising, partial curve, poor fit]
24 | Cc1cc(N)ccc1N1CCCC1 | inconclusive: -6% | –
25 | COc1ccc(NC(=O)CN2C(=O)NC(C)(c3ccc4c(c3)OCCO4)C2=O)cc1S(N)(=O)=O (configuration not stated) | inconclusive: 2.3% | –
26 | COc1cccc2c1nc(C)c1cc(C)oc12 | inconclusive: -2.79% | –

Given with tabs: part of the list above.
Row	Structure (SMILES)	activity change, negative = inhibition	Potency
8	COc1cc(C(=O)NCCc2c[nH]c3ccccc23)ccc1OCc1c(C)noc1C	–	inconclusive: 11.2 µM [falling, partial curve]
9	FC(F)(F)c1cccc(CNC(=S)Nc2ccccc2)c1	inactive	–
10	COc1ccc(NC(=O)CSc2nc(O)cc(=O)n2-c2ccc(OC)cc2)cc1	–	inconclusive: 12.6 µM [rising, partial curve, poor fit]
11	CCOc1ccc(NC(=O)CSc2ccc3nnc(-c4cccnc4)n3n2)cc1	inactive	–

Next part

Row | Structure (SMILES) | activity change, negative = inhibition | Potency
27 | Cc1ccccc1NC(=O)CSc1nc(N)c(C#N)c(-c2cccs2)c1C#N | inconclusive: 1.84% | –
28 | CC1CCCN(S(=O)(=O)c2ccc3oc(=O)ccc3c2)C1 (configuration not stated) | inactive | –
29 | COc1ccc(-c2oc3ncnc(NCCCN4CCOCC4)c3c2-c2ccc(OC)cc2)cc1 | inactive | –
30 | Cc1[nH]n(-c2ccccc2)c(=O)c1/C=N/n1c(C)nc2ccccc2c1=O | inconclusive: -17.4% | –
31 | CC(C)n1cc(/C=N/Nc2ccc(Cl)c(C(=O)O)c2)c2ccccc21 | – | inconclusive: 11.2 µM [falling, partial curve]
32 | Cc1ccc(S(=O)(=O)c2cc(C#N)c(=O)[nH]c2N)cc1 | – | inconclusive: 35.5 µM [falling, partial curve, poor fit]
33 | O=C(N/N=C/c1cc(Br)cc(Br)c1O)c1cccc(S(=O)(=O)N2CCOCC2)c1 | inactive | –
34 | COc1ccc(C(=O)COC(=O)[C@H](C)Nc2ccc(C(F)(F)F)cc2[N+](=O)[O-])cc1 | inconclusive: 27% | –
35 | Cc1c(CCOC(=O)c2cc([N+](=O)[O-])cc([N+](=O)[O-])c2)sc[n+]1CCCCS(=O)(=O)[O-] | inconclusive: 0.74% | –
36 | Cc1ccc(C)c(NC(=O)c2cc3c([nH]c4ccccc43)c(C)n2)c1 | – | inconclusive: 17.8 µM [falling, single point]
37 | O=C(NN1C(=O)c2ccccc2NC1c1ccc([N+](=O)[O-])o1)c1ccc([N+](=O)[O-])cc1 (configuration not stated) | inactive | –
38 | COC(=O)c1cc(Cl)c(NC(=O)/C=C/c2ccc(OC)c(OC)c2)cc1OC | inactive | –
39 | CCOC(=O)c1cc(CNC(=O)c2c(C)oc3c2CCCC3)c(C)o1 | inconclusive: 1.88% | –
40 | Cc1ccc(CNC(=O)C(=O)c2cn(CC(=O)N3CCOCC3)c3ccccc23)cc1 | – | inconclusive: 20 µM [falling, partial curve]
41 | O=C(Nc1ccccc1)c1ccc(-n2cnnn2)cc1 | – | inconclusive: 35.5 µM [falling, single point]
42 | Cc1[nH]c2ccccc2c1C(=O)COC(=O)c1ccccc1O | inconclusive: -0.803% | –
43 | COCCN1CN(S(=O)(=O)c2cccc(Cl)c2)c2nc3ccccc3nc21 | inconclusive: 2.64% | –
44 | O=C(NNC(=O)c1ccc2ncccc2c1)c1ccc(Cl)cc1 | inconclusive: -11.2% | –
45 | FC(F)(F)c1cc(-c2ccco2)nc(NCCc2ccccc2)n1 | inconclusive: 23.3% | –
46 | COC(=O)C1C(O)=C(C=NC2CCCCC2)C(=O)CC1(C)C (configuration not stated) | – | inconclusive: 35.5 µM [falling, partial curve, poor fit]
47 | C#CCOc1ccccc1C(N)=O | inconclusive: -0.314% | –
48 | Cc1cc(C)cc(NC(=O)COc2coc(CN3CCc4ccccc43)cc2=O)c1 | inactive | –
49 | CCc1sc(Nc2ccc(C)cc2Br)nc1-c1cc2cccc(OC)c2oc1=O | inactive | –
50 | c1ccc2cc(OCc3nc4ccccc4[nH]3)ccc2c1 | – | inconclusive: 29.1 µM [rising, single point]
51 | CCOC(=O)CSc1nc2c(sc3ccccc32)c(=O)n1Cc1ccc(C)cc1 | inactive | –
52 | O=C(c1ccco1)N1CCN(c2c(-c3ccccc3)c3cc(Cl)ccc3[nH]c2=O)CC1 | inconclusive: 0.189% | –
